These are yes or no findings as the source states them, for the method shown. Where a sequence is shown, tags or fusion partners need not be part of it.

This assay deals with IGFIIR. The assay is described as follows: ELISA on coated protein, 5-fold dilutions from 20 nM, anti-human Fc HRP, Abs. at 450 nm. (In general: In an ELISA, binding on a coated surface is turned into a signal by an enzyme label.)

B1: 1564 minibody (anti-IGF1R scFv of clone 1564 at the C-terminus of Fc) (Fc fusion, not shown: a dimerising Fc or GST)
chain: QSVLTQPPSASGTPGQRVTISCTGSSSNIGSNDVSWYQQLPGTAPKLLIYANSNRPSGVSDRFSGSKSGTSASLAISGLRSEDEADYYCGAWDDSLNGYVFGCGTKLTVLGGGGSGGGGSGGGGSGGGGSEVQLLESGGGLVQPGGSLRLSCAASGFTFSSYDMSWVRQAPGKCLEWVSAISYDNGNTYYADSVKGRFTISRDNSKNTLYLQMNSLRAEDTAVYYCAKGVLTTLMNWFDYWGQGTLVTVSS
Turning to B1, the binding entry was “no binding (tested: 20 nM)”.

For the origin of these results see patent publication US20220348665A1.
